Assay results as given in the supplement of paper PMC8007513.
Some of the results follow. Most values come without repeats; read them as rough.

Each compound was assayed on Saccharomyces cerevisiae BY4743 (assay: growth (OD600) with compound + IPBC relative to untreated control; higher = less growth inhibition). Conditions: compound concentration: 133 uM; IPBC concentration: 0.5 ug/ml; 20 h.
Protocol: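 NMCCC compounds (133 uM) combined with IPBC (0.5 ug/ml) against Saccharomyces cerevisiae BY4743 in YPD, 96-well plates. Growth was read as OD600 at 20 h and expressed as % of the untreated control. Single pass.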

**Q.** `Cc1cnc(NC(=O)CSc2nnc(CN3CCOCC3)n2C)s1` + CCCCNC(=O)OCC#CI [3-iodo-2-propynyl butylcarbamate (IPBC)] was tested. Which growth did it give?
**A.** 92.5%

**Q.** For `O=C(Nc1ccccc1OC(F)F)c1ccc(NC2CC2)nc1` + CCCCNC(=O)OCC#CI [3-iodo-2-propynyl butylcarbamate (IPBC)], which growth is on record?
**A.** 91%

**Q.** `O=C(Cc1cccc(F)c1)NCC(=O)Nn1cnc2ccccc21` + CCCCNC(=O)OCC#CI [3-iodo-2-propynyl butylcarbamate (IPBC)] was tested. Which growth did it give?
**A.** 93.3%

**Q.** `CCOC(=O)c1cnn2c1nc(O)c1ccccc12` + CCCCNC(=O)OCC#CI [3-iodo-2-propynyl butylcarbamate (IPBC)] was tested. Which growth did it give?
**A.** 95.5%

**Q.** Which growth does the source give for `CC(=O)C1=C(C)OC(=C1)CCC(=O)OCC/2=C/C(=O)N/3\C=C(Cl)/C=C\C3=N2` + CCCCNC(=O)OCC#CI [3-iodo-2-propynyl butylcarbamate (IPBC)] here?
**A.** 106%

**Q.** `COC(=O)c1ccc(CSc2nc(N)c3ccsc3n2)cc1` + CCCCNC(=O)OCC#CI [3-iodo-2-propynyl butylcarbamate (IPBC)] was tested. Which growth did it give?
**A.** 94.5%

**Q.** With `COc1ccc(NC(=O)CCc2cccs2)cc1S(=O)(=O)N1CCOCC1` + CCCCNC(=O)OCC#CI [3-iodo-2-propynyl butylcarbamate (IPBC)] as the compound, how does the growth read?
**A.** 99.2%

**Q.** Which growth does the source give for `COCc1cc(O)n2nc(NC(C)=O)nc2n1` + CCCCNC(=O)OCC#CI [3-iodo-2-propynyl butylcarbamate (IPBC)] here?
**A.** 81.7%

**Q.** `Cc1ccc(S(=O)(=O)CCC(=O)OC(C)C(=O)N(C)c2ccccc2)cc1` (centres undefined) + CCCCNC(=O)OCC#CI [3-iodo-2-propynyl butylcarbamate (IPBC)] was tested. Which growth did it give?
**A.** 104%
